Measured values reported in article PMC11548879.
For at least one entry, the source does not settle the construct or the ends of the probe.

System: HpARI2 (Heligmosomoides polygyrus bakeri)
Assay: EMSA
Conditions: effectively bound all DNA, pH 7.5, 30 min, room temperature, recombinant protein, protein details: C-terminal c-myc, 6xHis, label: IR700 (printed at 5' of S1)

AACTTTGCCATTGTGGAAGG / CCTTCCACAATGCCAAAGTT [IR700 EMSA oligonucleotide probe]
binding result: binds
